Reference: paper PMC6642263
No constants are given. Whether binding was seen depends on the method and setting. For some of these results: In cells and extracts the contact can be indirect. Some binding calls cover weakened binding; strength is not graded here. For some of these results: Tags and fused reporters may be left off the sequences shown. One block for each binder: values may come before it.

Chains of the proteins cited; added tags and fusions are not shown.
UniProt Q92769: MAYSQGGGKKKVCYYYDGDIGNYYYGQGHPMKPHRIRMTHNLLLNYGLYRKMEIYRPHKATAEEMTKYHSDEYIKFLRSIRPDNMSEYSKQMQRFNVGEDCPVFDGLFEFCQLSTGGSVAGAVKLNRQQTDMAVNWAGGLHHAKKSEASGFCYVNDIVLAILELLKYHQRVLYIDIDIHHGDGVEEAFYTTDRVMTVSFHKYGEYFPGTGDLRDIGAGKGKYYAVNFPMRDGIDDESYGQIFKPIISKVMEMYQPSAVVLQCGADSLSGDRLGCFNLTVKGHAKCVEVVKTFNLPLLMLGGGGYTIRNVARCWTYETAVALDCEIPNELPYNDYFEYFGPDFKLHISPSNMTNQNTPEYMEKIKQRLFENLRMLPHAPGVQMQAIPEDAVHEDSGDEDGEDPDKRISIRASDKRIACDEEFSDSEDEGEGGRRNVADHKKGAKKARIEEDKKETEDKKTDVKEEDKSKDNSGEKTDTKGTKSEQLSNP
UniProt Q13547: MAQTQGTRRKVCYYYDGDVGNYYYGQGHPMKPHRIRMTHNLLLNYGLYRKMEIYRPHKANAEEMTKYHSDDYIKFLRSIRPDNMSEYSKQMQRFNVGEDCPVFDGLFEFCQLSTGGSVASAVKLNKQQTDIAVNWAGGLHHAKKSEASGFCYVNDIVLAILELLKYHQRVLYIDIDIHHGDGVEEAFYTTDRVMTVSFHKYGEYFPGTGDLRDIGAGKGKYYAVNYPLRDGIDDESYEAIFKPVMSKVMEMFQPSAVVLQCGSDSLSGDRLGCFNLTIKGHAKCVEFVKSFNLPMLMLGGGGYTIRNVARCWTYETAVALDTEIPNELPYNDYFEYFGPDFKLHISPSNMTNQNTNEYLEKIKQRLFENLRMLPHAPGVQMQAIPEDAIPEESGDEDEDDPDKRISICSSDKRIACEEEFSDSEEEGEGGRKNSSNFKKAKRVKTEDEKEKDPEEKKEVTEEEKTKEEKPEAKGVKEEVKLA
UniProt P02340: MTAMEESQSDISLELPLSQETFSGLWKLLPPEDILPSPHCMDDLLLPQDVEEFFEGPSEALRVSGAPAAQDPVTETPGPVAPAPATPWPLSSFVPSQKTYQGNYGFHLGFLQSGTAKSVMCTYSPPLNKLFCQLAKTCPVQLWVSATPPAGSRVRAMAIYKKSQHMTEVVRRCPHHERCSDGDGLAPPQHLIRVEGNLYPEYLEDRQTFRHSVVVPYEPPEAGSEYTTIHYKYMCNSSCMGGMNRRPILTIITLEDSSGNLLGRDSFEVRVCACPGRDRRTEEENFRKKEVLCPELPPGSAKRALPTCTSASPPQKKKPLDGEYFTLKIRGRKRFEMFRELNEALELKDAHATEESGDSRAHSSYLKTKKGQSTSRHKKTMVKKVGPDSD

Key:
[1] = target: His-HDAC2 (UniProt Q92769); assay: pull-down; His pull-down: His-HDAC1 or His-HDAC2 (beads bound, from E. coli) incubated overnight with GST-p53 (eluted, from E. coli), without or with FLAG-ZEB1 (FLAG peptide eluted, from 293T cells); both purified
[2] = target: His-HDAC1 (UniProt Q13547); assay: as above
[3] = target: His-HDAC1 (UniProt Q13547); assay: pull-down; His pull-down: beads-bound His-p53, His-HDAC1 or His-HDAC2 incubated with lysates of HEK293T cells transfected with FLAG-ZEB1 full-length or truncated mutants, 4 °C overnight; only the target purified
[4] = target: HA-p53 wild-type (UniProt P04637); assay: co-IP; lysates of 293T cells transfected with FLAG-ZEB1 and HA-p53 or HA-p53 fragments; IP lysis buffer 50 mM Tris-HCl, 150 mM NaCl, 1 mM EDTA, 1% NP40, pH 7.4
[5] = target: His-p53 (UniProt P04637); assay: pull-down; His pull-down: recombinant His-p53 bound to Ni-NTA beads, co-incubated with FLAG-ZEB1 protein (FLAG peptide eluted); both purified
[6] = target: p53 (endogenous, human breast stromal CAFs) (human (endogenous in breast tumour CAFs)) (UniProt P04637); assay: co-IP; endogenous proteins in lysates of mouse and human stromal CAFs; IP lysis buffer 50 mM Tris-HCl, 150 mM NaCl, 1 mM EDTA, 1% NP40, pH 7.4; Protein A/G agarose beads
[7] = target: p53 (endogenous, mouse breast stromal CAFs) (mouse (endogenous in mammary tumour CAFs)) (UniProt P02340); assay: as above

binding [1]: binds
binding [2]: binds
binding [3]: binds
binding [4]: binds
binding [5]: binds
B1: FLAG-ZEB1 full-length (protein, UniProt P37275 1-1124)
chain: MADGPRCKRRKQANPRRNNVTNYNTVVETNSDSDDEDKLHIVEEESVTDAADCEGVPEDDLPTDQTVLPGRSSEREGNAKNCWEDDRKEGQEILGPEAQADEAGCTVKDDECESDAENEQNHDPNVEEFLQQQDTAVIFPEAPEEDQRQGTPEASGHDENGTPDAFSQLLTCPYCDRGYKRFTSLKEHIKYRHEKNEDNFSCSLCSYTFAYRTQLERHMTSHKSGRDQRHVTQSGCNRKFKCTECGKAFKYKHHLKEHLRIHSGEKPYECPNCKKRFSHSGSYSSHISSKKCISLIPVNGRPRTGLKTSQCSSPSLSASPGSPTRPQIRQKIENKPLQEQLSVNQIKTEPVDYEFKPIVVASGINCSTPLQNGVFTGGGPLQATSSPQGMVQAVVLPTVGLVSPISINLSDIQNVLKVAVDGNVIRQVLENNQANLASKEQETINASPIQQGGHSVISAISLPLVDQDGTTKIIINYSLEQPSQLQVVPQNLKKENPVATNSCKSEKLPEDLTVKSEKDKSFEGGVNDSTCLLCDDCPGDINALPELKHYDLKQPTQPPPLPAAEAEKPESSVSSATGDGNLSPSQPPLKNLLSLLKAYYALNAQPSAEELSKIADSVNLPLDVVKKWFEKMQAGQISVQSSEPSSPEPGKVNIPAKNNDQPQSANANEPQDSTVNLQSPLKMTNSPVLPVGSTTNGSRSSTPSPSPLNLSSSRNTQGYLYTAEGAQEEPQVEPLDLSLPKQQGELLERSTITSVYQNSVYSVQEEPLNLSCAKKEPQKDSCVTDSEPVVNVIPPSANPINIAIPTVTAQLPTIVAIADQNSVPCLRALAANKQTILIPQVAYTYSTTVSPAVQEPPLKVIQPNGNQDERQDTSSEGVSNVEDQNDSDSTPPKKKMRKTENGMYACDLCDKIFQKSSSLLRHKYEHTGKRPHECGICKKAFKHKHHLIEHMRLHSGEKPYQCDKCGKRFSHSGSYSQHMNHRYSYCKREAEERDSTEQEEAGPEILSNEHVGARASPSQGDSDERESLTREEDEDSEKEEEEEDKEMEELQEEKECEKPQGDEEEEEEEEEVEEEEVEEAENEGEEAKTEGLMKDDRAESQASSLGQKVGESSEQVSEEKTNEA

binding [6]: binds
B2: ZEB1 (endogenous, human breast stromal CAFs) (protein, UniProt P37275 1-1124)
chain: B1 chain

binding [7]: binds
B3: ZEB1 (endogenous, mouse breast stromal CAFs) (protein, UniProt Q64318 1-1117)
chain: MADGPRCKRRKQANPRRNNVTNYNTVVEANSDSDDEDKLHIVEEESITDAADCEGGMPDDELPADQTVLPGGSDRGGGAKNCWQDNVKDNECDSDAENEQNHDPNVEEFLQQQDTAVIYPEAPEEDQRQGTPEASSHDENGTPDAFSQLLTCPYCDRGYKRFTSLKEHIKYRHEKNEDNFSCSLCSYTFAYRTQLERHMTSHKSGREQRHVTQSGGNRKFKCTECGKAFKYKHHLKEHLRIHSGEKPYECPNCKKRFSHSGSYSSHISSKKCISLMPVNGRPRSGLKTSQCSSPSLSTSPGSPTRPQIRQKIENKPLQEPLSVNQIKTEPVDYEFKPIVVASGINCSTPLQNGVFSSGGQLQATSSPQGVVQAVVLPTVGLVSPISINLSDIQNVLKVAVDGNVIRQVLETNQASLASKEQEAVSASPIQQGGHSVISAISLPLVDQDGTTKIIINYSLEQPSQLQVVPQNLKKEIPAPTNSCKSEKLPEDLTVKSETDKSFEGARDDSTCLLCEDCPGDLNALPELKHYDPECPAQPPPPAPATEKPESSASSAGNGDLSPSQPPLKNLLSLLKAYYALNAQPSTEELSKIADSVNLPLDGVKKWFEKMQAGQIPGQSPDPPSPGTGSVNIPTKTDEQPQPADGNEPQEDSTRGQSPVKIRSSPVLPVGSAMNGSRSCTSSPSPLNLCSARNPQGYSCVAEGAQEEPQVEPLDLSLPKQQGELLERSTVSSVYQNSVYSVQEEPLNLSCAKKEPQKDSCVTDSEPVVNVVPPSANPINIAIPTVTAQLPTIVAIADQNSVPCLRALAANKQTILIPQVAYTYSATVSPAVQEPPVKVIQPNGNQDERQDTSSEGVSTVEDQNDSDSTPPKKKTRKTENGMYACDLCDKIFQKSSSLLRHKYEHTGKRPHECGICRKAFKHKHHLIEHMRLHSGEKPYQCDKCGKRFSHSGSYSQHMNHRYSYCKRGAEDRDAMEQEDAGPEVLPEVLATEHVGARASPSQADSDERESLTREEDEDSEKEEEEEDKEMEELQEGKECENPQGEEEEEEEEEEEEEEEEEEEVEADEAEHEAAAKTDGTVEVGAAQQAGSLEQKASESEMESESESEQLSEEKTNEA
